Laboratory results taken from PubChem BioAssay (Tox21).
Several values for one entry are separate records, joined by “and”; a condition that tells them apart may be missing. Equal values may be shown once. Inconclusive results, whose numbers are uncertain, are shown with a selection of clear calls. A potency beside an inconclusive call is a rough fit, not a confirmed value. Activity calls are given as the source filed them. Unless noted, calls come from the whole dose curve.

Test system: not listed separately
Test: cAMP Responsive Elements (CRE) small molecule antagonists, cell-based qHTS assay (AID 1963591; active = well fitted inhibition curve with a large enough effect in the signal ratio in the repeat runs, not every such curve was filed as active; inconclusive = weak or mixed curves, or effect the other way; the % refers to the signal ratio)
Details: CRE-bla HEK293T, beta-lactamase FRET ratio; activity change, negative = inhibition: at 92.4 µM (top of the series) unless noted
Outline: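 Inhibition of NKH477-driven (0.25 uM final) CRE-beta-lactamase signal in HEK293T cells, 3 h compound exposure at 37 °C, detected by FRET substrate fluorescence.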
% is set by controls: 0 for no effect and ±100 for the full control effect; potency is the fitted concentration of half-maximal effect.

Row | SMILES | Potency | activity change, negative = inhibition
1 | NCCNc1cccc2ccccc12 | inconclusive: 68.5 µM [rising, single point] | –
2 | c1ccc(OCc2ccc(CCCN3CCOCC3)cc2)cc1 | – | inconclusive: -33.1% [at 42.4 µM]
3 | NC1[C@H]2CN(c3nc4c(cc3F)c(=O)c(C(=O)O)cn4-c3ccc(F)cc3F)C[C@@H]12 (stereo not given in full) | inconclusive: 10.6 µM [fluorescent, full curve, poor fit] | –
4 | O=C=Nc1cccc(C(F)(F)F)c1 | inactive | –
5 | COC(=O)C1=C(C)NC(C)=C(C(=O)OCCCN2CCC(c3ccccc3)(c3ccccc3)CC2)C1c1cccc([N+](=O)[O-])c1 (stereo not given) | inconclusive: 33.5 µM [single point] | –
6 | O=c1cc(-c2ccccc2)oc2cc(O)cc(O)c12 | inconclusive: 61.1 µM [partial curve] | –
7 | O=c1[nH]c2ccccc2n1CCCN1CCN(C(c2ccccc2)c2ccccc2)CC1 | inconclusive: 26.6 µM [fluorescent, partial curve, poor fit] | –
8 | CC(=O)CC(=O)Nc1ccc(C)cc1C | – | inconclusive: 19.3%
9 | CC(C(=O)O)c1ccc(C(=O)c2ccccc2)s1 (stereo not given) | – | inconclusive: 18.1% [at 42.4 µM]
10 | CN1C(=O)N(c2ccccc2Br)Cc2cnc(Nc3ccc4c(c3)OCC(CO)O4)nc21 (stereo not given) | active: 57 µM | –
11 | COCCOC | inconclusive: 41.3 µM [inhibitor, partial curve] | –

Target: Beta-2 adrenergic receptor (Homo sapiens) (UniProt P07550)
Test: Adrenergic beta2 receptor (ADRB2) small molecule antagonists, cell-based qHTS assay (AID 1963592); note: nearly all actives have a fitted effect of over 50% in size
Details: CHO-ADRB2 cells, isoproterenol-stimulated cAMP HTRF ratio, 0.5 h; activity change, negative = inhibition: at 92.4 µM (top of the series) unless noted
Outline: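 Cells (CHO, stable ADRB2 overexpression) incubated 18-20hr at 37C; compounds added from DMSO; agonist mix (1nM isoproterenol, 100uM IBMX, 25uM Ro-20-1724) added; 0.5hr RT; d2-cAMP and anti-cAMP-cryptate added; 1hr RT; 665/615 nm read.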

Row | SMILES | Potency | activity change, negative = inhibition
12 | CC(C)C(OC(=O)c1ccccc1)C(C)(C)COC(=O)c1ccccc1 (stereo not given) | inactive | –
13 | CC(C)C(C)(C)C(C)(C)C(C)(C)S | inconclusive: 0.0039 µM [rising, full curve, poor fit] | –
14 | CCC(C)c1nccnc1OC (stereo not given) | – | inconclusive: -4.5%
15 | Clc1cccc(-c2cc(Cl)cc(Cl)c2)c1 | inactive | –
16 | CN1C(=O)N(c2ccccc2Br)Cc2cnc(Nc3ccc4c(c3)OCC(CO)O4)nc21 (stereo not given) | – | inconclusive: -34%

Target: Beta-2 adrenergic receptor (Homo sapiens) (UniProt P07550)
Test: Adrenergic beta2 receptor (ADRB2) small molecule agonists, cell-based qHTS assay (AID 1963593);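 for activation: CHO cells stably overexpressing human ADRB2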
Details: CHO-ADRB2 cells, cAMP HTRF, 30 min; activation: at 92.4 µM (top of the series) unless noted
Outline: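 CHO cells stably over-expressing ADRB2 were plated overnight at 37C, then dosed with compounds plus a stimulation mix containing 100uM IBMX and 25uM Ro-20-1724 for 0.5hr at room temperature. cAMP was measured by HTRF competition, 1hr.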

Row | SMILES | Potency | activation
17 | Oc1c(Cl)cc(Cl)c2cccnc12 | inconclusive: 33.5 µM [inhibitor, single point] | –
18 | COc1ccc(-c2cc(=S)ss2)cc1 | inactive | –
19 | Cc1nc(Nc2ncc(C(=O)Nc3c(C)cccc3Cl)s2)cc(N2CCN(CCO)CC2)n1 | inactive | –
20 | CN1Cc2cc(C(=O)N3CCC(C4CCNCC4)CC3)ccc2NC(CC(=O)O)C1=O (stereo not given) | – | inconclusive: 14.4% [at 42.5 µM]
21 | CC(=O)OC1CCC(C(C)(C)C)CC1 (stereo not given) | inactive | –
22 | N#Cc1ccc(C/C(=N/NC(=O)Nc2ccc(OC(F)(F)F)cc2)c2cccc(C(F)(F)F)c2)cc1 | inconclusive: 68.6 µM [inhibitor, single point] | –
23 | CCNc1ccccc1 | – | inconclusive: 10.3% and inconclusive: 3.55%
24 | Clc1ccc(Cn2c(CN3CCCC3)nc3ccccc32)cc1 | inactive | –
25 | O=C(O)Cc1cc(I)c(Oc2ccc(O)c(I)c2)c(I)c1 | – | inconclusive: 1.02%
26 | C[C@]12CC[C@@H]3c4ccc(O)cc4C[C@@H](CCCCCCCCCS(=O)CCCC(F)(F)C(F)(F)F)[C@H]3[C@@H]1CC[C@@H]2O (stereo not given in full) | inconclusive: 1.22 µM [inhibitor, full curve, poor fit] and inconclusive: 320 nM [inhibitor, single point] and inconclusive: 5.96 µM [inhibitor] | –
27 | C=CC[N+]1([C@H]2C[C@H]3[C@@H]4CC[C@H]5C[C@H](OC(C)=O)[C@@H](N6CCCCC6)C[C@]5(C)[C@H]4CC[C@]3(C)[C@H]2OC(=O)CC)CCCCC1 | inactive | –
28 | COC(=O)C(C)Oc1ccc(Oc2ncc(C(F)(F)F)cc2Cl)cc1 (stereo not given) | inconclusive: 61.9 µM [activator, partial curve, poor fit] | inconclusive: 8.18%
29 | CC(=O)c1ccc2ccc3ccccc3c2c1 | inconclusive: 68.2 µM [inhibitor] | –
30 | CC(C)C(C)(C)C(C)(C)C(C)(C)S | – | inconclusive: 1.72%
31 | CC(=O)OCC(=O)[C@@]1(O)[C@H](C)C[C@H]2[C@@H]3CCC4=CC(=O)C=C[C@]4(C)[C@@]3(F)[C@@H](O)C[C@@]21C | inconclusive: 2.66 µM [inhibitor, single point] | –
32 | CO[C@H]1C=CO[C@@]2(C)Oc3c(C)c(O)c4c(O)c(c5c(c4c3C2=O)=NC2(CCN(CC(C)C)CC2)N=5)NC(=O)/C(C)=C\C=C/[C@H](C)[C@H](O)[C@@H](C)[C@@H](O)[C@@H](C)[C@H](OC(C)=O)[C@@H]1C | inconclusive: 9.47 µM [inhibitor, full curve, poor fit] | –
33 | c1ccc(OCc2ccc(CCCN3CCOCC3)cc2)cc1 | – | inconclusive: -8.4% [at 42.5 µM]

One compound at a time (already shown).
`CC(C)C(C)(C)C(C)(C)C(C)(C)S` in the list: activation: inconclusive: 1.72%
`N#Cc1ccc(C/C(=N/NC(=O)Nc2ccc(OC(F)(F)F)cc2)c2cccc(C(F)(F)F)c2)cc1` in the list: Potency: inconclusive: 68.6 µM [inhibitor, single point]
`COc1ccc(-c2cc(=S)ss2)cc1` in the list: Potency: inactive

Next compounds follow.

Row | SMILES | Potency | activation
34 | CCC(C)c1nccnc1OC (stereo not given) | inactive | –
35 | CC(=O)CC(=O)OC(C)(C)C | inactive | –
36 | CC(C)(N=C=O)c1cccc(C(C)(C)N=C=O)c1 | – | inconclusive: 17.8% and inconclusive: -39.4%
37 | NC1[C@H]2CN(c3nc4c(cc3F)c(=O)c(C(=O)O)cn4-c3ccc(F)cc3F)C[C@@H]12 (stereo not given in full) | – | inconclusive: -39.4% [at 42.5 µM]
38 | Clc1cccc(-c2cc(Cl)cc(Cl)c2)c1 | inactive | –
39 | C(=C(c1ccccc1)c1ccccc1)c1ccccc1 | – | inconclusive: 43.8%
40 | O=C=Nc1cccc(C(F)(F)F)c1 | – | inconclusive: 5.51%
41 | COC(=O)C1=C(C)NC(C)=C(C(=O)OCCCN2CCC(c3ccccc3)(c3ccccc3)CC2)C1c1cccc([N+](=O)[O-])c1 (stereo not given) | – | inconclusive: -58.1% [at 42.5 µM]
42 | Cc1cccc(CN2CCN(C(c3ccccc3)c3ccc(Cl)cc3)CC2)c1 (stereo not given) | inactive | –
43 | O=c1cc(-c2ccccc2)oc2cc(O)cc(O)c12 | – | inconclusive: -22.2%
44 | O=c1[nH]c2ccccc2n1CCCN1CCN(C(c2ccccc2)c2ccccc2)CC1 | inconclusive: 29.8 µM [inhibitor, single point] | –
45 | CC(=O)CC(=O)Nc1ccc(C)cc1C | inactive | –
46 | O=C1C=CCCC1 | – | inconclusive: 0.0239%
47 | CN1C(=O)N(c2ccccc2Br)Cc2cnc(Nc3ccc4c(c3)OCC(CO)O4)nc21 (stereo not given) | – | inconclusive: -73.5%
48 | COCCOC | – | inconclusive: 41.1%
49 | C=COCC1CCC(COC=C)CC1 (stereo not given) | – | inconclusive: -0.66%
